PubChem BioAssay AID1224828 | NIAID, 2016
Shown is an unselected part of about 17,000 deposited reagents. 762 of them (4.5%) were called active. 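Active calls include both raised and lowered p65 entry, mostly lowered; wells with fewer than 50 cells lack a z-score.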 Raw values vary from plate to plate and are shown uncorrected. Unmarked entries are inactive.

Test: 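Regulators linking TLR4 signalling to p65 nuclear translocation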 (primary screen)
Cell system: mouse RAW264.7 G9 macrophage reporter cells (GFP-p65, Tnf promoter-mCherry)
Reagents: siRNA pool against mouse genes, 100 nM
Time to read-out: 2 days siRNA transfection, then 40 min LPS before fixation
Challenge: LPS (Salmonella minnesota R595) at 10 ng/ml
Detection: 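Imaged p65 nuclear translocation ratio, normalised to the plate median, converted to robust z-scores and averaged across two replicates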
Scale: p65 translocation robust z-score: higher = more nuclear NF-kappaB p65 after LPS than the plate median; nuclear/cytoplasmic p65 ratio: higher = more nuclear NF-kappaB p65
Rule for the call: 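Active if robust z is above 3.3 (negative regulators) or below -1.56, the Tlr4 control median (positive regulators); activity score 50 or more; control wells not called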
Meaning of the calls: active = hit (p65 shift raised or lowered); inactive = no clear change

Hoxc6 [SID315467271] → p65 translocation robust z-score: 0.65; nuclear/cytoplasmic p65 ratio, rep 1: 1.51; nuclear/cytoplasmic p65 ratio, rep 2: 1.47; low cell count flag: enough cells to score
Sdsl [SID315479927] → p65 translocation robust z-score: 2.11; nuclear/cytoplasmic p65 ratio, rep 1: 1.75; nuclear/cytoplasmic p65 ratio, rep 2: 1.96; low cell count flag: enough cells to score
Cpsf4 [SID315471172] → p65 translocation robust z-score: 1.69; nuclear/cytoplasmic p65 ratio, rep 1: 1.85; nuclear/cytoplasmic p65 ratio, rep 2: 2.04; low cell count flag: enough cells to score
Slc6a3 [SID315466265] → p65 translocation robust z-score: -0.3; nuclear/cytoplasmic p65 ratio, rep 1: 1.43; nuclear/cytoplasmic p65 ratio, rep 2: 1.52; low cell count flag: enough cells to score
Slc7a14 [SID315479590] → p65 translocation robust z-score: -0.14; nuclear/cytoplasmic p65 ratio, rep 1: 1.45; nuclear/cytoplasmic p65 ratio, rep 2: 1.47; low cell count flag: enough cells to score
Spink12 [SID315475546] → p65 translocation robust z-score: 1.19; nuclear/cytoplasmic p65 ratio, rep 1: 1.57; nuclear/cytoplasmic p65 ratio, rep 2: 1.73; low cell count flag: enough cells to score
Abraxas2 [SID315476828] → p65 translocation robust z-score: 0.59; nuclear/cytoplasmic p65 ratio, rep 1: 1.56; nuclear/cytoplasmic p65 ratio, rep 2: 1.56; low cell count flag: enough cells to score
Rufy1 [SID315478020] → p65 translocation robust z-score: 1.39; nuclear/cytoplasmic p65 ratio, rep 1: 1.6; nuclear/cytoplasmic p65 ratio, rep 2: 1.37; low cell count flag: enough cells to score
Cdkn1c [SID315465915] → p65 translocation robust z-score: 0; nuclear/cytoplasmic p65 ratio, rep 1: 1.62; nuclear/cytoplasmic p65 ratio, rep 2: 1.44; low cell count flag: enough cells to score
Ccr1 [SID315466012] → nuclear/cytoplasmic p65 ratio, rep 1: 1.42; nuclear/cytoplasmic p65 ratio, rep 2: 1.78; low cell count flag: fewer than 50 cells per well; well left out of scoring
Atp8b3 [SID315472967] → p65 translocation robust z-score: -0.71; nuclear/cytoplasmic p65 ratio, rep 1: 1.43; nuclear/cytoplasmic p65 ratio, rep 2: 1.48; low cell count flag: enough cells to score
Rad50 [SID315468874] → p65 translocation robust z-score: 0.34; nuclear/cytoplasmic p65 ratio, rep 1: 1.61; nuclear/cytoplasmic p65 ratio, rep 2: 1.53; low cell count flag: enough cells to score
Ccdc12 [SID315474598] → p65 translocation robust z-score: -1.82 (active); nuclear/cytoplasmic p65 ratio, rep 1: 0.991; nuclear/cytoplasmic p65 ratio, rep 2: 1.39; low cell count flag: enough cells to score
Parp14 [SID315481982] → p65 translocation robust z-score: 1.38; nuclear/cytoplasmic p65 ratio, rep 1: 1.84; nuclear/cytoplasmic p65 ratio, rep 2: 2.02; low cell count flag: enough cells to score

Continued; the last 3 above are carried over.
Rad50 [SID315468874] → p65 translocation robust z-score: 0.34; nuclear/cytoplasmic p65 ratio, rep 1: 1.61; nuclear/cytoplasmic p65 ratio, rep 2: 1.53; low cell count flag: enough cells to score
Ccdc12 [SID315474598] → p65 translocation robust z-score: -1.82 (active); nuclear/cytoplasmic p65 ratio, rep 1: 0.991; nuclear/cytoplasmic p65 ratio, rep 2: 1.39; low cell count flag: enough cells to score
Parp14 [SID315481982] → p65 translocation robust z-score: 1.38; nuclear/cytoplasmic p65 ratio, rep 1: 1.84; nuclear/cytoplasmic p65 ratio, rep 2: 2.02; low cell count flag: enough cells to score
Or5p1 [SID315480381] → p65 translocation robust z-score: 0.39; nuclear/cytoplasmic p65 ratio, rep 1: 1.5; nuclear/cytoplasmic p65 ratio, rep 2: 1.29; low cell count flag: enough cells to score
Prox2 [SID315474726] → p65 translocation robust z-score: 0.07; nuclear/cytoplasmic p65 ratio, rep 1: 1.4; nuclear/cytoplasmic p65 ratio, rep 2: 1.67; low cell count flag: enough cells to score
Spmip4 [SID315474138] → nuclear/cytoplasmic p65 ratio, rep 1: 1.36; nuclear/cytoplasmic p65 ratio, rep 2: 1.28; low cell count flag: fewer than 50 cells per well; well left out of scoring
Stx5a [SID315471502] → nuclear/cytoplasmic p65 ratio, rep 1: 1.52; nuclear/cytoplasmic p65 ratio, rep 2: 1.31; low cell count flag: fewer than 50 cells per well; well left out of scoring
Il7 [SID315467463] → p65 translocation robust z-score: 0.15; nuclear/cytoplasmic p65 ratio, rep 1: 1.48; nuclear/cytoplasmic p65 ratio, rep 2: 1.41; low cell count flag: enough cells to score
Dync1h1 [SID315466354] → p65 translocation robust z-score: 1.27; nuclear/cytoplasmic p65 ratio, rep 1: 1.49; nuclear/cytoplasmic p65 ratio, rep 2: 1.52; low cell count flag: enough cells to score
Hspb2 [SID315473764] → p65 translocation robust z-score: 0.57; nuclear/cytoplasmic p65 ratio, rep 1: 1.46; nuclear/cytoplasmic p65 ratio, rep 2: 1.5; low cell count flag: enough cells to score
